Some of the results follow. Further columns of the screen follow, without active or inactive calls. The list favours compounds with an active or inconclusive main result. Words in brackets tell the shape of the fitted curve; partial curves, single points and poor fits give uncertain potencies.
Test: qHTS Assay for Lipid Storage Modulators in Drosophila S3 Cells;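 on cell number change: cells counted by Cell Tracker Red CMTPX staining in the red channel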
Conditions: BODIPY lipid droplet fluorescence, 18-24 h; for cell number change: measured here: cell count max response, cells fed with added oleic acid
Outline: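 Drosophila S3 cells loaded with oleic acid (400 uM, as added) and compounds at several concentrations; lipid droplets imaged by 488-nm laser-scanning cytometry, 500–530 nm intensity and object ratio to cell channel. Percent activity normalized to 20 uM Triacsin C.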

[1] = measured here: lipid fluorescence (Fed channel) AC50, cells fed with added oleic acid
[2] = measured here: cell number channel AC50, cells fed with added oleic acid

For `Cc1ccc2c(c1)C1CN(C)CCC1N2S(=O)(=O)c1ccccc1F` (stereo unspecified), the cell number change was 5.91% and the AC50 [1] was 2.06 µM [rising, single point].

In the case of `CC1(C)CC(=O)C(C=Nc2cc(C(=O)c3ccccc3)ccc2N)=C(O)C1`, the cell number change is reported as 75.4%, the AC50 [2] is reported as 8.2 µM [rising, partial curve] and the AC50 [1] is reported as 25.9 µM [falling, single point].

For `COc1ccccc1CN1CCC(CNS(=O)(=O)c2cc(-c3cc(C)no3)ccc2OC)CC1`, the cell number change was 60.6%, the AC50 [2] was 7.31 µM [rising, partial curve] and the AC50 [1] was 16.4 µM [rising, partial curve].

With `CCCc1cc(=O)[nH]c(SCC(=O)Nc2c(C)cccc2C)n1` the cell number change was -0.231% and the AC50 [1] was 23.1 µM [rising, single point].

With `Cc1ccc(S(=O)(=O)N(C)c2ccc(C(=O)N(CC(C)C)C3CCS(=O)(=O)C3)cc2)cc1` (stereo unspecified) the cell number change was 70.7% and the AC50 [2] was 16.4 µM [rising, partial curve, poor fit].

In the case of `CCCCc1ccc(NC(=O)COc2ccc(C(=O)Nc3ccccc3C)cc2)cc1`, the cell number change is reported as -40.6% and the AC50 [2] is reported as 13 µM [falling, partial curve, poor fit].

With `O=C1C=C(NCc2ccc(Cl)c(Cl)c2)C2(CCCCC2)O1` the cell number change was 9.68% and the AC50 [1] was 9.2 µM [rising, partial curve, poor fit].

For `COc1ccccc1Cc1nc(-c2ccc(Br)o2)no1`, the cell number change was -9.33%.

Molecule `CCOC(=O)c1ccc(NC(=S)NCc2ccc(S(N)(=O)=O)cc2)cc1` has a cell number change of -9.45%.

In the case of `CCCCc1ccc(-n2c(Cc3cccs3)n[nH]c2=S)cc1`, the cell number change is reported as 0.691% and the AC50 [1] is reported as 1.16 µM [rising, single point].

In the case of `COc1ccc(N2CC(NS(=O)(=O)c3ccc4ccccc4c3)CC2=O)cc1` (stereo unspecified), the AC50 [1] is reported as 16.4 µM [rising, partial curve].

For `COc1ccc(CN(C)S(=O)(=O)c2nnc(NC(=O)c3cccc(OC)c3)s2)cc1`, the cell number change was -13% and the AC50 [1] was 0.082 µM [falling, full curve, poor fit].

For `COc1ccc(OCCCCN(C)Cc2ccccc2)cc1`, the cell number change was 20.5% and the AC50 [1] was 29.1 µM [rising, single point].

With `COc1ccc(CNC(=O)CN2C(=O)CSc3ccc(S(=O)(=O)N4CCOCC4)cc32)cc1` the cell number change was 5.2% and the AC50 [1] was 11.6 µM [rising, single point].

For `CC1(C)Cc2c(C#N)c(N3CCN(C(=O)c4ccccc4)CC3)nc(Cc3ccccc3)c2CO1`, the AC50 [2] was 4.11 µM [rising, partial curve, poor fit].

With `O=C(COc1ccc2c3c(c(=O)oc2c1)CCC3)NC1CCN(Cc2ccccc2)CC1` the cell number change was -0.567% and the AC50 [1] was 29.1 µM [rising, single point].

In the case of `COCCN(CCOC)c1cc(C)c(C#N)c2nc3ccccc3n12`, the cell number change is reported as 2.83% and the AC50 [1] is reported as 6.51 µM [falling, single point].

For `CC(=O)Nc1cc2nn(-c3ccccc3)nc2cc1Cl`, the cell number change was 6.69% and the AC50 [1] was 29.1 µM [falling, single point].

In the case of `COc1ccc(C)cc1C(=O)CCC(=O)Nc1ccccc1N1CCOCC1`, the cell number change is reported as 90.4%, the AC50 [2] is reported as 25.9 µM [rising, partial curve] and the AC50 [1] is reported as 18.4 µM [rising, partial curve].

With `COc1ccc(CN2CCN(Cc3ccc(C(F)(F)F)cc3)CC2)c(OC)c1` the cell number change was -28.3% and the AC50 [1] was 29.1 µM [falling, single point].

With `CCC(Sc1nc(C)cc(=O)[nH]1)C(=O)Nc1nc(-c2ccccc2)cs1` (stereo unspecified) the cell number change was 21.2% and the AC50 [1] was 0.82 µM [rising, full curve, poor fit].

With `COCC(C)NC(=O)c1ccc(N(C)C)cc1` (stereo unspecified) the cell number change was 32.3%, the AC50 [2] was 0.291 µM [rising, full curve, poor fit] and the AC50 [1] was 0.651 µM [falling, single point].

For `COc1ccc(/C=C2\Oc3cc(OCC(N)=O)ccc3C2=O)cc1OC`, the cell number change was 5.41% and the AC50 [1] was 29.1 µM [falling, single point].

In the case of `N#Cc1c(N2CCCC2)nc(N)c2c(N)nc(N3CCCC3)cc12`, the AC50 [2] is reported as 1.64 µM [rising, partial curve].

`CCn1ncc(Br)c1C(=O)Nc1ccc(OC(F)(F)F)cc1` gave a cell number change of -6.38%.

Work on `CCOC(=O)c1cc(NC(=O)c2cc(C)on2)cc(C(=O)OCC)c1` yielded a cell number change of 7.1%.

In the case of `Fc1ccc(NC(=S)Nc2cccnc2)cc1`, the cell number change is reported as -83.4%, the AC50 [2] is reported as 18.4 µM [falling, single point] and the AC50 [1] is reported as 29.1 µM [falling, partial curve].

In the case of `COC(=O)c1ccc(C(=O)OC)c(NC(=O)CN2CCN(c3ccc(OC)cc3)CC2)c1`, the cell number change is reported as -8.57%, the AC50 [2] is reported as 0.13 µM [rising, full curve] and the AC50 [1] is reported as 4.11 µM [rising, partial curve, poor fit].

For `O=C(CCN1C(=O)[C@@H]2Cc3ccccc3CN2C1=O)NCCc1ccccc1`, the cell number change was 2.27% and the AC50 [2] was 3.66 µM [rising, partial curve, poor fit].

For `Cc1[nH]c2ccccc2c1/C=N/NC(=O)c1cccc(S(=O)(=O)Nc2cccc(C(F)(F)F)c2)c1`, the cell number change was -91.1%, the AC50 [2] was 29.1 µM [falling, single point] and the AC50 [1] was 20.6 µM [falling, partial curve].

In the case of `COc1ccc(Cl)cc1N(CC(=O)NCCSc1ccccn1)S(=O)(=O)c1ccccc1`, the AC50 [1] is reported as 29.1 µM [falling, single point].

With `O=C(Nc1nnc(COc2ccc(Cl)cc2)s1)c1ccc([N+](=O)[O-])cc1` the cell number change was 15% and the AC50 [1] was 10.3 µM [rising, partial curve, poor fit].

For `Cc1cc(-c2c(C)[nH]n(-c3ccccc3)c2=O)n[nH]1`, the cell number change was -44.3%, the AC50 [2] was 9.2 µM [falling, partial curve] and the AC50 [1] was 29.1 µM [falling, single point].

In the case of `Cn1c(C(=O)NCCN2CCCCCC2)cc2c(=O)n(C)c3ccccc3c21`, the AC50 [2] is reported as 2.59 µM [falling, single point] and the AC50 [1] is reported as 3.66 µM [falling, partial curve].

With `CCc1nnc(NC(=O)C2CCN(c3nc(C)cc(C)n3)CC2)s1` the cell number change was -4.05% and the AC50 [1] was 3.26 µM [falling, single point].

Molecule `O=C(Nc1c(F)cc(F)cc1Br)c1cc(-c2ccccc2)on1` has a cell number change of -8.03%.

Source: PubChem BioAssay AID2685 (National Center for Advancing Translational Sciences (NCATS), 2010)
